# Data from PubChem BioAssay AID1508600 (Functional Genomics Laboratory (NCATS/FGL), 2020).
# Out of some 53,000 sequences screened, about 3,700 (7%) were called active.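 How the source made its calls: active means gene knockdowns whose robust z-score for IL-1 alpha signal is at least 2 or at most -2, so actives lie on both sides; inactive means the rest.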 Some of the results follow.
# Test: Components of the Cytosolic LPS Sensing Pathway: Gene Identification via Genome-wide siRNA Screen;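 further: robust z of the log signal after scaling to non-targeting control siRNA wells of the plate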
# Conditions: RAW264.7 macrophages, IL-1a HTRF, actives lie on both sides, screened at 100 nM (by protocol), cells primed 5 h with Pam3CSK4 first
# How it was run: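 Supernatant IL-1a by HTRF from RAW264.7 cells primed with Pam3CSK4 (5 hours) and transfected with LipidA (24 hour) after 48h siRNA knockdown at 100 nM; cell viability checked with CellTiter-Glo.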
row,Sequence,z-score
1,GGCAAGGUGCUGAUUCCCUTT against Itga9,inactive: 0.0779
2,CCUUCAAAUGUGGGAGUCCTT against Dmac2,inactive: -1.3
3,CCACAACAUUUGCUAAUAATT against Cysltr2,inactive: -0.233
4,GCAAAUCACACAUUCUCUGTT against Stk32b,inactive: -0.00833
5,GGUAAUUAACAUGAAGUGUTT against Traf4,inactive: -1.34
6,GGGCCUCAAACAUCUGACUTT against Ccdc71,inactive: -0.442
7,CCCUAGGCCUACCUAAUGATT against Tmem138,inactive: -0.894
8,GGUGGAUGUCUCAGCAUAATT against Pafah1b2,inactive: 1.27
9,CGAGUUGUAUAGCAGCUCCTT against Dok2,inactive: -0.573
10,CCAUAAAUCAGCUAAAGCATT against Eea1,inactive: 0.112
11,GUUUUGUUUUUCCUCCAGUTT against Bcl9l,inactive: 0.929
12,GGAAUAAAAGACCUUGGAUTT against Slc39a7,inactive: 0.274
13,GACGGUACAUCUGCUCAUCTT against Galr3,inactive: -0.88
14,GGUUCUGCUCCAACCUUUGTT against Gtf2b,inactive: 0.546
15,GCCUCUACUGGUUAUUUAATT against Slc22a15,active: 2.09
16,GGACCAGGUAGAGCAAUUUTT against Hpdl,inactive: -0.52
17,GGGCAAUUCUAUCAAAGAGTT against Gps1,active: -2.14
18,GGAAAGGAUAUUAUUGUUCTT against Olfr907,inactive: -1.62
19,GGCACAAGUCCAUGUUGUUTT against Emg1,inactive: -0.161
20,GGCUAUGAUGACUUCAACUTT against Gnb3,inactive: -1.64
21,CCUCCUUUUAGACAGAUGCTT against Gm4983,inactive: -0.276
22,GGAUCUUUGGAGAAAGAGATT against Kcnc3,inactive: 0.957

row,Sequence,z-score
1,GCAGUAUUACAAUAGGAUCTT against Magea9-ps,inactive: 0.0318
2,GGAGACCAAAUAGCAUUUUTT against Olfr504,inactive: 0.0671
3,GCGAUUGCAAGAGGACCUATT against Gm11507,inactive: 0.408
4,GCCCUGGAUCAUUGAGUGATT against Atp2b1,inactive: 0.749
5,GCCGAAGCCCUAUUUAUUATT against Artn,inactive: 0.673
6,CGAUGGUAGAAUUCUUAGATT against Akap9,inactive: -0.659
7,CCUACACAUAUGAAGGAGUTT against Fabp2,inactive: 0.069
8,GGAUGUAAUCCACUUCAAGTT against Acox3,inactive: 0.651
9,GGAAGCGAACGAGACACUUTT against Pla2g4a,inactive: -0.404
10,GGAAAACAAGACUUCAAUCTT against Gypa,inactive: 0.369
11,GGCAGAUCAGAAUUGAAUUTT against Fgd6,inactive: -0.528
12,GGAAACACAGCAAUAGAUUTT against Cplx1,inactive: -0.00292
13,GGAUCCUGCUCAAAAAAGUTT against Arxes1,inactive: -0.431
14,GCCUCCUACUGGUUCCAAATT against Commd7,active: 2.05
15,GGCCAGUGUGUGGUCUAAGTT against Cd1d2,inactive: 1.89
16,GGAGUUGAUAAUAUGGUGGTT against Uck1,inactive: 0.712
17,GGAUAUUCUUCUUAAGCAGTT against Agbl5,inactive: -0.168
18,GCUAAACAGAACAGGUUGUTT against Pdpn,inactive: 0.415
19,GGAAGAUAACAUCAACAAATT against Arl6ip5,inactive: 0.702
20,CGGACUCACAGAGCUAAGATT against Tnp2,inactive: 1.56
21,GGCCGAAUUGUGUCUUGGUTT against Dnmt3a,inactive: -1.71
22,GGGUCUGGUUCUGUAACCATT against Pou4f3,inactive: -1.94

row,Sequence,z-score
1,GGAGACUGAGACUUUAGAGTT against Gadd45b,inactive: -0.209
2,GGGUGUAGAAAAGAAGAAATT against Gsap,inactive: 0.685
3,GCCCUAUACCUUAUUUAAUTT against Ros1,inactive: 1.74
4,CCCUACACGCAGGAGUUUUTT against Gtf3c1,inactive: -0.23
5,GGAGUCAGUACUUCAAGAUTT against Zfp148,inactive: -0.635
6,CGAUCGAUAAAUGUAAUGATT against Heatr5a,inactive: -0.0662
7,GGGAUGGGCUUCUGAAUAATT against Vmn1r205,inactive: -0.00314
8,GGAAGAACCACCUUCAUGCTT against Btn2a2,inactive: 0.187
9,GGCUAUGUUACCAGAAAGCTT against Mfsd3,inactive: -1.09
10,GCCUAUAUGGAACACUGGGTT against Mrps6,inactive: 0.6
11,GCAAGACUCUACACAUCACTT against Nox4,inactive: 0.0384
12,GGAACAGUAUAUAAGUUCATT against Hcfc2,inactive: -0.593
13,CCUUUCUCAUGCUAUGGAGTT against Poc1b,inactive: -0.853
14,GGAUGUCUAUAGUGAGAUUTT against Psg16,inactive: -0.0706
15,GGAACACCUACAGUAUAAATT against Cdc123,inactive: -0.39
16,GGAGAGACUGACAAAAACCTT against Mrvi1,inactive: -0.0504
17,GGGUUUUGAAACAUGCAGGTT against Cd44,inactive: -1.54
18,GGAUGACAAAAAUUUCAAGTT against St14,inactive: -0.283
19,GCAGUUGCUAUGUUCUAUATT against Olfr1257,inactive: -0.513
20,CGACAAGGAAAGUUGAUGUTT against Hdac3,inactive: -0.0618
21,GUACCUGAACUCAACUGAGTT against Ffar2,inactive: -0.0572
22,GGAGGAACAAUAAACUGUATT against Dcaf8l,inactive: 0.321

# Individual results from the entries so far.
# z-score, GGAUGACAAAAAUUUCAAGTT against St14 is entered as inactive: -0.283
# z-score, GCAAGACUCUACACAUCACTT against Nox4 is entered as inactive: 0.0384
# z-score, GCCCUAUACCUUAUUUAAUTT against Ros1 is entered as inactive: 1.74
# z-score, GGGAUGGGCUUCUGAAUAATT against Vmn1r205 is entered as inactive: -0.00314
# z-score, CGACAAGGAAAGUUGAUGUTT against Hdac3 is entered as inactive: -0.0618

# Next entries follow.

row,Sequence,z-score
1,CGGUUCAUCUGGGAGUAUGTT against Rerg,inactive: -1.3
2,CCCACUUGCUGAAAAUUGUTT against Ankib1,inactive: -0.338
3,GCAAGGGCAAGUCCACAAATT against Gjb3,inactive: 0.428
4,CCCUAUGCAAUAUCAAAAUTT against Hnrnpa1,inactive: 1.22
5,GCAACACGAAUAUCACAGGTT against Hadha,inactive: 0.356
6,GGCAAGUGAGGAAAAGAGGTT against Setd1a,inactive: -0.741
7,GCAACCUCAUACCAAAGAGTT against Zfyve26,inactive: 0.211
8,GGAGAAGAGCAUGCCUUUCTT against Lgals6,inactive: -0.138
9,GCCAACUUUGCCAUUAAAATT against Rnf208,inactive: -0.376
10,CCUUCUGGUGCUUUUAGAGTT against Tlm,inactive: -0.486
11,CCGUAAGAAGGAAAACGCATT against Kcnd1,inactive: -0.506
12,GGGACUUGAGUAGCUGACUTT against Sgta,inactive: -1.49
13,GGACUCUGGACCUUAUGCUTT against Tmem202,inactive: -0.921
14,GGCGAUAACUGUCGAUACUTT against Mkrn1,inactive: 0.524
15,GGAGCUUCUUUUCCCUCUATT against Gcgr,inactive: -0.684
16,GCAAGAGGUCUGAAGUAUGTT against Pde4dip,inactive: 0.0997
17,GGGUUUUGCUAUGUGGCCUTT against Farsa,inactive: -1.18
18,GGAAGAAUCAAAAACCUUCTT against Ddit3,inactive: 1.16
19,GGACGUAACAAAAUGUUCUTT against P2ry12,inactive: 0.578
20,CCCUUGUCCAGUGUGAGUUTT against Tmem184b,inactive: 1.07
21,GGCUAAAGAACAUGAUACCTT against Sema4a,inactive: 1.19
22,GGAAGAAGUCAGAUGUGGATT against Radil,inactive: -0.315

row,Sequence,z-score
1,GGAAUCAACUUGGUGGCUCTT against Rxrg,inactive: -0.0611
2,GGGCUGCUAUUUUGAUGGUTT against Chrd,inactive: 0.704
3,GGAUGUCUCAAAGUAAGAATT against Cd55b,inactive: -0.124
4,CCUAUGUCAUUUGUAAUGATT against Tceanc,inactive: -1.26
5,ACUUCCUGACUGAGAGACATT against Olfr485,inactive: 0.981
6,CCCGAUUAUUCAUCUGCACTT against Kbtbd7,inactive: 0.947
7,GGUUAUCCCAGCUACCACATT against 9630013D21Rik,inactive: -0.761
8,AAAAGUUAAUCAUCCGGCATT against Olfr732,inactive: -0.099
9,UUCCAUUUUUUGGAGACCATT against Ugt3a1,inactive: -0.153
10,CGAAUUCUCUACCAGUUUUTT against Psd4,inactive: 0.41
11,GGAAGAAAAAAAAUCUCCATT against Frmd3,inactive: 0.577
12,GCCAACAAUUUGAAGAACGTT against Spats1,inactive: 1.1
13,GGUACGAUGAACUCACAGATT against Ints1,inactive: 0.393
14,GCUUUACGCAUCCUACGUGTT against Ftmt,inactive: -1.54
15,GGAAAGAUUCAAAGAACCUTT against Rpia,inactive: 1.45
16,GCGGAAAGGCCAAACGAUUTT against Inhbb,inactive: -0.734
17,GGAGGUCUGGAUUAACUGUTT against Cd163l1,active: 2.2
18,CCAUCUGAUUUCUUUCCAGTT against Gm5154,inactive: -0.783
19,GGAGAUCAUUAAAAAGCUGTT against Kat2b,inactive: 0.229
